No constants are given. Whether binding was seen depends on the method and setting. In cells and extracts the contact can be indirect. Some binding calls cover weakened binding; strength is not graded here. For part of these data: Where a sequence is shown, tags or fusion partners need not be part of it.
How the values were obtained:
[1] = molecular target: T1, D prostanoid receptor-2, Renilla luciferase (Rluc)-tagged (UniProt Q9Y5Y4); experiment: FRET or BRET; BRET2 in live transfected HEK293 cells: Rluc-tagged receptor (donor) and GFP-tagged β-arrestin2 (acceptor), donor:acceptor 1:4; HBSS + 20 mM HEPES, 37 °C, agonist for 10 min (PGD2, MDL29,951 or CNO), DeepBlueC 5 µM; wild-type cells without or with PTX and/or FR900359, or ΔGsix cells + PTX
T1 sequence: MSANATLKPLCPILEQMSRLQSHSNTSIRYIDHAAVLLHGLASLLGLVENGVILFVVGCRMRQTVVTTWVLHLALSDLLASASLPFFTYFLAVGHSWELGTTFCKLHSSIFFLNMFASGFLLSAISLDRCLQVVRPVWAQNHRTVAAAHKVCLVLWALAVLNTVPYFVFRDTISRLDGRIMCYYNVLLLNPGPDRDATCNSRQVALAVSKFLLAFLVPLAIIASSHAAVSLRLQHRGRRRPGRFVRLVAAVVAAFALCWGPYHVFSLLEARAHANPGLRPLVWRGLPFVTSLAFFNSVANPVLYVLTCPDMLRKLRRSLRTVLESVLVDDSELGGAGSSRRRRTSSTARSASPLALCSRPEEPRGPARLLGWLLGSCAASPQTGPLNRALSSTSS

Chains of the proteins cited; added tags and fusions are not shown.
UniProt Q13304: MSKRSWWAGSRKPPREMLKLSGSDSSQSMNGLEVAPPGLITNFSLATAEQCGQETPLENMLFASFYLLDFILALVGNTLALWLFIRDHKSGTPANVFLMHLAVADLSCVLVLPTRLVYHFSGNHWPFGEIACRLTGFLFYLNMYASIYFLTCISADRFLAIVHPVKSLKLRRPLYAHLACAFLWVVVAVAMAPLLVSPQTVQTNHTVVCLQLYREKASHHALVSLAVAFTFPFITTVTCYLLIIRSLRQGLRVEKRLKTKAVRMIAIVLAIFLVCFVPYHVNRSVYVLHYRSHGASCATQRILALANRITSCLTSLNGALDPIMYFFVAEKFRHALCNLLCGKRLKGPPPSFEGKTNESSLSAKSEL
UniProt P32121: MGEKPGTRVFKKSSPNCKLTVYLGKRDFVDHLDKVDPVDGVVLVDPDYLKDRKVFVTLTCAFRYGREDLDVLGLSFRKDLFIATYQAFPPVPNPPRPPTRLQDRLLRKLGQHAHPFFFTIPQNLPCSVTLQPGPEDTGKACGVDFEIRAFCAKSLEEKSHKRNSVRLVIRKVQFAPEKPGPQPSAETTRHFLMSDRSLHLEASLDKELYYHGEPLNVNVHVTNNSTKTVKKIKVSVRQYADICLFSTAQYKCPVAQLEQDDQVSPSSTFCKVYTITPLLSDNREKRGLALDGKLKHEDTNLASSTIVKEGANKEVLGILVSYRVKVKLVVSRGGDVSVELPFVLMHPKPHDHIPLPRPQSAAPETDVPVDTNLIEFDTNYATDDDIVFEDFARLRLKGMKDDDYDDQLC

[2] = molecular target: GPR17, Renilla luciferase (Rluc)-tagged (UniProt Q13304); experiment: as above
[3] = molecular target: T2, free fatty acid receptor-2, eYFP-tagged (UniProt O15552); experiment: FRET or BRET; BRET1 in live transfected HEK293 cells: Rluc-tagged β-arrestin2 (donor) and eYFP-tagged FFA2 (acceptor), donor:acceptor 1:4; HBSS + 20 mM HEPES, coelenterazin h 5 µM, propionic acid (C3) for 5 min; wild-type or ΔG12/13 cells without or with PTX and FR900359
T2 sequence: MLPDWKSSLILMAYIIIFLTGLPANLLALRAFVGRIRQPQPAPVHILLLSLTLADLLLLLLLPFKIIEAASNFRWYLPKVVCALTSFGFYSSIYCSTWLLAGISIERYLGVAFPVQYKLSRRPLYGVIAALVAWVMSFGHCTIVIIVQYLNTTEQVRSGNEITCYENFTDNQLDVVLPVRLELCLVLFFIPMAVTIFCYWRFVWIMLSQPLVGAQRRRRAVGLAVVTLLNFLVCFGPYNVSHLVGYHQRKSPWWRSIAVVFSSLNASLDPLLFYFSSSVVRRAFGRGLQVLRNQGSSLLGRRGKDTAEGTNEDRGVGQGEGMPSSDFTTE

Row | Substance | binding [1] | binding [2] | binding [3]
1 | GFP-tagged β-arrestin2 (from UniProt P32121 1-409) | binds | binds | –
2 | Rluc-tagged β-arrestin2 (from UniProt P32121 1-409) | – | – | binds
